Results are given in words; binding and its absence hold for the method and conditions named. For some of these results: In cells and extracts the contact can be indirect. Some entries that bind do so weakly or less than the wild type.
Tests used:
[1] = molecular target: WT-PLB labelled with mCer (donor) or YFP (acceptor) (human) (UniProt P26678); assay: FRET or BRET
[2] = molecular target: R9C-PLB labelled with mCer (donor) or YFP (acceptor) (human) (UniProt P26678); assay: FRET or BRET
[3] = molecular target: R14del-PLB labelled with mCer (donor) or YFP (acceptor) (human) (UniProt P26678); assay: FRET or BRET
[4] = molecular target: SERCA2a labelled with Cer (donor) (UniProt P16615); assay: FRET or BRET
[5] = molecular target: R14del-PLB (phospholamban with in-frame deletion of arginine 14), as expressed for immunoblots (human) (UniProt P26678); assay: SDS-PAGE and immunoblot of oligomers
[6] = molecular target: WT-PLB (phospholamban, wild type), as expressed for immunoblots (human) (UniProt P26678); assay: SDS-PAGE and immunoblot of oligomers

The chains behind the UniProt entries cited, without tags or fusion partners. Where a name states a change or a piece, a line headed by the entry shows the natural chain unless it says otherwise. A line that says so, or that is headed by a name, gives the form on record, which may keep a tag or linker.
SERCA2a labelled with Cer (donor) (P16615, form named): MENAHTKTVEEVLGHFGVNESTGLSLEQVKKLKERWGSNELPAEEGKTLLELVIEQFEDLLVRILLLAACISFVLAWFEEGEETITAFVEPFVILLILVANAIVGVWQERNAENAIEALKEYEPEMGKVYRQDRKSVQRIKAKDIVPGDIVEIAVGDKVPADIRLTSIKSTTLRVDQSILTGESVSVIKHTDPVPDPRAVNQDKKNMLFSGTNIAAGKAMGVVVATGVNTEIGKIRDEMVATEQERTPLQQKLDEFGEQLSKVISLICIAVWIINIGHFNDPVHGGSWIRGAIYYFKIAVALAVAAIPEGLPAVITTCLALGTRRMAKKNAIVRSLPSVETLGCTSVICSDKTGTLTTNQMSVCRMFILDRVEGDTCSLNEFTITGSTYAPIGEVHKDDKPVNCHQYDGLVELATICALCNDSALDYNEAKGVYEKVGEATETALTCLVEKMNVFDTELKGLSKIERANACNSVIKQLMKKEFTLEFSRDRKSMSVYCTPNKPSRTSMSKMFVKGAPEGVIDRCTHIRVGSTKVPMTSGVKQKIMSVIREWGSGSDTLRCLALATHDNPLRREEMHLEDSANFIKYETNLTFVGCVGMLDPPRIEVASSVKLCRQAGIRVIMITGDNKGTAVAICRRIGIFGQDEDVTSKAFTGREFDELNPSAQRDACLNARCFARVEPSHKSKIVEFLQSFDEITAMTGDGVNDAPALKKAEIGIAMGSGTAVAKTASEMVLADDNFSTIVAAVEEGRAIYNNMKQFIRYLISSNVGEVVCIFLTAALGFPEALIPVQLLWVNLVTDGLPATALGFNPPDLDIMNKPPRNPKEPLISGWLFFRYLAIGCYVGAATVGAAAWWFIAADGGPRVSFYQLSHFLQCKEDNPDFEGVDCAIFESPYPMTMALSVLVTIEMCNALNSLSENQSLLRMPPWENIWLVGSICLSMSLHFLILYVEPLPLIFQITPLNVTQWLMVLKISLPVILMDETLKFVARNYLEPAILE

Row | Molecule | binding [1] | binding [4] | binding [6] | also measured
1 | WT-PLB labelled with mCer (donor) or YFP (acceptor) (from UniProt P26678 1-52) | binds | binds | – | –
2 | R14del-PLB (phospholamban with in-frame deletion of arginine 14), as expressed for immunoblots (natural protein) MEKVQYLTRSAIRASTIEMPQQARQKLQNLFINFCLILICLLLICIIVMLL | – | – | binds | binding [5]: binds
3 | WT-PLB (phospholamban, wild type), as expressed for immunoblots (natural protein) MEKVQYLTRSAIRRASTIEMPQQARQKLQNLFINFCLILICLLLICIIVMLL | – | – | binds | –

Continued, in another order:

Row | binding [1] | binding [4] | binding [6] | Molecule | also measured
4 | binds | – | – | R9C-PLB labelled with mCer (donor) or YFP (acceptor) (from UniProt P26678 1-52) | binding [2]: binds
5 | binds | binds | – | R14del-PLB labelled with mCer (donor) or YFP (acceptor) (from UniProt P26678 1-52) | binding [3]: binds
